From paper PMC2700083, “A covalent peptide inhibitor of RGS4 identified in a focused one-bead, one compound library screen” (BMC Pharmacology, 2009) come the findings set out here.

Sequences of proteins named here, by UniProt entry; tags and fusion partners are left off. A change or cut given only in a name is not applied to a line headed by its entry. Residues count along the entry.
UniProt P49799, residues 52-205: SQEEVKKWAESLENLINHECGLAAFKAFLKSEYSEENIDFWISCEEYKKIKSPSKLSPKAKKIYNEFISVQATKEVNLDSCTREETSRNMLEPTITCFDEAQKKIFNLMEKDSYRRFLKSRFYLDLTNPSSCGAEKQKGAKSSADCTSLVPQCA

No constants are given. Whether binding was seen depends on the method and setting. Some results given as binding are weak or reduced against the parent protein; the word gives no strength.

This experiment has as its target RGS4Δ51N cleaved from the MBP-His6 construct (UniProt P49799). Briefly: MALDI MS of the covalent adduct; 5 μM RGS4Δ51N pretreated with 250 μM 5nd (50:1) or DMSO, desalting column, MicroMX MALDI MS, positive ion mode; both purified.

B1: Peptide 5nd (Tyr-Trp-c[Cys-Lys-Gly-Leu-Cys]-Lys-NH2, S-S) (peptide)
peptide: YWCKGLCK
modifications: C-terminal amide; disulfide bridge (S-S) between the two Cys; free N-terminus
As for B1, the binding result is recorded as “binds”.
